Measurements reported in PubChem BioAssay AID1508588 (Peter MacCallum Cancer Centre, 2020)

Aim: 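Knock-downs boosting vemurafenib effects on melanoma cell growth or lactate release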 (primary screen)
System: human WM266.4 melanoma cells (BRAF V600 mutant)
Reagent: siRNA pool against human genes, 40 nM
Time to read-out: 96 h from transfection to read-out
Challenge: vemurafenib 300 nM (about IC25), added 48 h after transfection, for 48 h; comparison arm got DMSO vehicle only
Detection: 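Cell gain (DAPI nuclei at end minus before drug, mean of two replicates) and medium lactate by absorbance per cell, both as ratio to non-targeting siRNA, also grouped into fold-change classes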
Reading the numbers: cell gain with vemurafenib: higher = more cell gain than with non-targeting siRNA; lactate per cell with vemurafenib: higher = more lactate made per cell
Active means: 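a knock-down counts as enhancing when its fold-change classes with vehicle and with vemurafenib, taken together, show a stronger drug effect on cell gain or lactate per cell; exact class pairs not stated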
Meaning of the calls: active = enhances vemurafenib effect; inactive = no enhancement seen
This is a random part of about 18,000 reagents. Of all reagents, 790 (4.4%) are marked active. 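Calls rest on a combination of fold-change classes in drug and vehicle arms, not all shown here.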 A number with no mark means an inactive call.

| target gene | cell gain with vemurafenib | lactate per cell with vemurafenib |
| --- | --- | --- |
| CXCR1 (GeneID 3577) | 0.13 | 1.19 |
| NPBWR1 (GeneID 2831) | 0.73 | 1.15 |
| LTK (GeneID 4058) | 1 | 0.82 |
| DEFA4 (GeneID 1669) | 0.65 | 1.08 |
| C3P1 (GeneID 388503) | 0.85 | 0.73 |
| ERI1 (GeneID 90459) | 0.78 | 1.01 |
| AP4E1 (GeneID 23431) | 0.64 | 1.08 |
| OR51S1 (GeneID 119692) | 0.82 | 1 |
| GSPT1 (GeneID 2935) | 0.71 | 0.64 |
| RUVBL1 (GeneID 8607) | 0.13 | 0.98 |
| OR12D3 (GeneID 81797) | 0.9 | 0.33 |
| NEUROG2 (GeneID 63973) | 0.88 | 1 |
| LRP12 (GeneID 29967) | 0.64 | 0.86 |
| ERLIN1 (GeneID 10613) | 0.77 | 0.6 |
| LRP4 (GeneID 4038) | 0.7 | 0.85 |
| CCDC74A (GeneID 90557) | 1.12 | 1.3 |
| RUNDC3A (GeneID 10900) | 0.49 | 0.62 |
| ACBD5 (GeneID 91452) | 0.7 | 0.72 |
| ADGRG6 (GeneID 57211) | 0.86 (active) | 0.47 |
| CENPW (GeneID 387103) | 0.41 | 0.62 |
| FKBP4 (GeneID 2288) | 1.08 | 0.66 |
| GPSM1 (GeneID 26086) | 0.5 | 1.12 |
| SLC35D4 (GeneID 85019) | 0.33 | 1.73 |
| MOBP (GeneID 4336) | 0.33 | 0.46 |
| TBX15 (GeneID 6913) | 0.91 | 1.6 |
| SPTLC3 (GeneID 55304) | 0.95 | 0.55 |
| ASAH1 (GeneID 427) | 0.09 | 2.21 |
| RPL11 (GeneID 6135) | -0.08 | 0.62 |
| ADRA2C (GeneID 152) | 0.44 | 0.8 |
| WFDC5 (GeneID 149708) | 1.01 | 1.04 |
| RPS4Y2 (GeneID 140032) | 0.76 | 0.76 |
| HNRNPCL1 (GeneID 343069) | 0.39 | 0.85 |
| CEP131 (GeneID 22994) | 0.89 | 0.88 |
| DIAPH1 (GeneID 1729) | 0.34 | 1.45 |
| FBXO38 (GeneID 81545) | 0.61 | 1.31 |
| AMN1 (GeneID 196394) | 0.67 | 1.4 |
| TENT4A (GeneID 11044) | 0.52 | 0.55 |
| BCAS2 (GeneID 10286) | 0.47 | 0.93 |
| RHEBL1 (GeneID 121268) | 0.51 | 1.43 |
| ALDOB (GeneID 229) | 0.86 | 0.99 |
| COL22A1 (GeneID 169044) | 0.63 | 0.48 |
| IMPDH2 (GeneID 3615) | 0.57 | 0.62 |
| KYAT3 (GeneID 56267) | 0.02 | 1.38 |
| TFDP3 (GeneID 51270) | 0.99 | 1.02 |
| CIB3 (GeneID 117286) | 0.41 | 0.8 |
| HIGD1B (GeneID 51751) | 0.8 | 0.86 |
| C21orf91 (GeneID 54149) | 1.31 | 0.45 |
| GHDC (GeneID 84514) | 0.45 | 1.16 |
| ZFAT (GeneID 57623) | 0.71 | 0.7 |
| B4GALT1 (GeneID 2683) | 0.5 | 1.07 |
| IFNGR1 (GeneID 3459) | 0.48 | 0.46 |
| PRUNE2 (GeneID 158471) | 0.11 | 0.63 |
| RPL24 (GeneID 6152) | -0.02 | 1.12 |
| COMMD4 (GeneID 54939) | 0.85 | 0.39 |
| RASSF8 (GeneID 11228) | 0.27 | 1.56 |
| MTRF1L (GeneID 54516) | 0.63 | 1.2 |
| AGAP7P (GeneID 653268) | 0.26 | 0.97 |
| EFNB3 (GeneID 1949) | 0.28 | 1.75 |
| FGF18 (GeneID 8817) | 0.58 | 0.8 |
| MTRR (GeneID 4552) | 0.49 | 0.64 |
| TUBE1 (GeneID 51175) | 0.62 | 1.02 |
| OLFM4 (GeneID 10562) | 0.61 | 0.62 |
| MALSU1 (GeneID 115416) | 0.28 | 0.81 |
| SSR4 (GeneID 6748) | 0.6 | 0.74 |
| RNASEH2A (GeneID 10535) | 1.07 | 0.89 |
| TMA7 (GeneID 51372) | 0.04 | 2.18 |
| OR8D1 (GeneID 283159) | 0.82 | 0.8 |
| SH3GL3 (GeneID 6457) | 0.46 | 1.32 |
| MED17 (GeneID 9440) | 0.8 | 1.22 |
| ERICH5 (GeneID 203111) | 0.6 | 1 |
| KAT2A (GeneID 2648) | 0.33 | 0.37 |
| ATRNL1 (GeneID 26033) | 0.84 | 1.08 |
| VCX3A (GeneID 51481) | 0.61 | 0.89 |
| UBE2E3 (GeneID 10477) | 0.3 | 2.07 |
| RPS15 (GeneID 6209) | -0.01 | 0.3 |
| CD7 (GeneID 924) | 0.66 | 0.44 |
| ZNF675 (GeneID 171392) | 0.96 (active) | 0.41 |
| ANXA2 (GeneID 302) | 0.39 | 0.64 |
| ZNF396 (GeneID 252884) | 0.88 | 0.42 |
| MYO1E (GeneID 4643) | 0.58 | 0.64 |
| CBFA2T3 (GeneID 863) | 0.55 | 0.97 |
| ATAD3C (GeneID 219293) | 0.93 | 1.02 |
| DEFB4A (GeneID 1673) | 0.75 | 0.44 |
| GPRASP3 (GeneID 80823) | 0.78 | 0.63 |
